{"source": "patent US9682965B2", "about": "“Fumagillol heterocyclic compounds and methods of making and using same” (Zafgen, Inc., priority 2015, dated 2017)", "system": "Diet Induced Obese (DIO) C57BL/6 mice", "assay": "10 day DIO mouse model (body weight, food intake, hematology, blood chemistry)", "assay_type": "in vivo", "settings": "0.3 mpk sc, once a day for 10 days", "description": "The objective of this study design was to investigate the efficacy of disclosed compounds in a 10 day DIO mouse model. Effects on body weight, food intake, hematology and blood chemistry were the primary readouts of this study design. […] Mice were fed Research Diets D12492 (60% Kcal fat, 20% Kcal carbohydrate and 20% protein) and provided water ad libitum. DIO mice were received and housed in the facility for approximately two weeks prior to the start of test article administration. On Day −4 or −3, mice were randomized into study groups based on body weight and body weights were continued to be recorded daily for the duration of the study. Daily food intake was assessed starting on Study Day −2 by weighing of the food with hopper together to avoid loss of food in transfer.\nCompounds were formulated into a 100% DMSO stock (at 9 mg/mL) prior to the start, and further diluted into the target working concentration using the vehicle of 10% DMSO in water. Prior to test article administration, starting on Day −3 a dosing acclimation occured with all animals receiving a subcutaneous injection of vehicle (10% DMSO) only for 3 days. Starting on Day 1, test compounds or vehicle were administered based on individual body weight, subcutaneously, once a day for 10 days. […] After sacrifice, whole blood was collected and analyzed for hematology and blood chemistry parameters. […]", "note": "Values joined by “and” are separate entries in the source; they are usually repeats but may differ in a detail not shown here. Identical values can stand only once. At least one read-out could not be matched to a standard name with certainty.", "data": [{"smiles": "CCN(CC)CCC1CCN1C(=O)O[C@@H]1CC[C@]2(CO2)[C@@H]([C@@]2(C)O[C@@H]2CC=C(C)C)[C@@H]1OC", "note": "(stereo partly drawn) [Example 106, (3R,4S,5S,6R)-5-methoxy-4-((2R,3R)-2-methyl-3-(3-methylbut-2-enyl)oxiran-2-yl)-1-oxaspiro[2.5]octan-6-yl 2-(2-(diethylamino)ethyl)azetidine-1-carboxylate]", "values": [{"measurement": "DIO Mouse 10-day weight loss vs vehicle", "value": "10.8% and 0.8%"}]}]}
